Reference: article PMC5366945
Results are given in words; binding and its absence hold for the method and conditions named. In cells and extracts the contact can be indirect. Some results given as binding are weak or reduced against the parent protein; the word gives no strength.

Chains of the proteins cited; added tags and fusions are not shown.
UniProt O88597: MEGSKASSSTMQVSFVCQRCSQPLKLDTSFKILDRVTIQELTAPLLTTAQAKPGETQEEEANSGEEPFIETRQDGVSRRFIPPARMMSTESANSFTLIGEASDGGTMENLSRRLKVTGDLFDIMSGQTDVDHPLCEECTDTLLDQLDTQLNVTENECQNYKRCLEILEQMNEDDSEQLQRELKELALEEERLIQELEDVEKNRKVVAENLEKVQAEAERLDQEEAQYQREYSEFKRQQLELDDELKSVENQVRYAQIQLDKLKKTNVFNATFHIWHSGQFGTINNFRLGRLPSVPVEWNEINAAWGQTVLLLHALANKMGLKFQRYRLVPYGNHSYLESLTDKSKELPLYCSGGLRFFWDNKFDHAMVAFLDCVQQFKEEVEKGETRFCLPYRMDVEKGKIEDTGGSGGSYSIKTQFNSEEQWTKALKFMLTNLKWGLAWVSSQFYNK
UniProt Q14457: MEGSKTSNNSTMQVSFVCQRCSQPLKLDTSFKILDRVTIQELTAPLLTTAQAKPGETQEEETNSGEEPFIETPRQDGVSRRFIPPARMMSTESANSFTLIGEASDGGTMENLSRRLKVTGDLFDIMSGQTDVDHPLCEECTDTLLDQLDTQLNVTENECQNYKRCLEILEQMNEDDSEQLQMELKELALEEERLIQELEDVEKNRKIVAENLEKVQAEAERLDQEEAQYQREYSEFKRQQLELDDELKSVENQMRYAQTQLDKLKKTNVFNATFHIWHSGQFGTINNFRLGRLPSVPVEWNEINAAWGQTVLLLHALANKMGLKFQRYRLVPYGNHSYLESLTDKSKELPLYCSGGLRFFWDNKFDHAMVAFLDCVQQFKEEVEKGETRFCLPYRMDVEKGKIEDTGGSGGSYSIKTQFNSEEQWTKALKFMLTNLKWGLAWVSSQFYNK
UniProt Q64511: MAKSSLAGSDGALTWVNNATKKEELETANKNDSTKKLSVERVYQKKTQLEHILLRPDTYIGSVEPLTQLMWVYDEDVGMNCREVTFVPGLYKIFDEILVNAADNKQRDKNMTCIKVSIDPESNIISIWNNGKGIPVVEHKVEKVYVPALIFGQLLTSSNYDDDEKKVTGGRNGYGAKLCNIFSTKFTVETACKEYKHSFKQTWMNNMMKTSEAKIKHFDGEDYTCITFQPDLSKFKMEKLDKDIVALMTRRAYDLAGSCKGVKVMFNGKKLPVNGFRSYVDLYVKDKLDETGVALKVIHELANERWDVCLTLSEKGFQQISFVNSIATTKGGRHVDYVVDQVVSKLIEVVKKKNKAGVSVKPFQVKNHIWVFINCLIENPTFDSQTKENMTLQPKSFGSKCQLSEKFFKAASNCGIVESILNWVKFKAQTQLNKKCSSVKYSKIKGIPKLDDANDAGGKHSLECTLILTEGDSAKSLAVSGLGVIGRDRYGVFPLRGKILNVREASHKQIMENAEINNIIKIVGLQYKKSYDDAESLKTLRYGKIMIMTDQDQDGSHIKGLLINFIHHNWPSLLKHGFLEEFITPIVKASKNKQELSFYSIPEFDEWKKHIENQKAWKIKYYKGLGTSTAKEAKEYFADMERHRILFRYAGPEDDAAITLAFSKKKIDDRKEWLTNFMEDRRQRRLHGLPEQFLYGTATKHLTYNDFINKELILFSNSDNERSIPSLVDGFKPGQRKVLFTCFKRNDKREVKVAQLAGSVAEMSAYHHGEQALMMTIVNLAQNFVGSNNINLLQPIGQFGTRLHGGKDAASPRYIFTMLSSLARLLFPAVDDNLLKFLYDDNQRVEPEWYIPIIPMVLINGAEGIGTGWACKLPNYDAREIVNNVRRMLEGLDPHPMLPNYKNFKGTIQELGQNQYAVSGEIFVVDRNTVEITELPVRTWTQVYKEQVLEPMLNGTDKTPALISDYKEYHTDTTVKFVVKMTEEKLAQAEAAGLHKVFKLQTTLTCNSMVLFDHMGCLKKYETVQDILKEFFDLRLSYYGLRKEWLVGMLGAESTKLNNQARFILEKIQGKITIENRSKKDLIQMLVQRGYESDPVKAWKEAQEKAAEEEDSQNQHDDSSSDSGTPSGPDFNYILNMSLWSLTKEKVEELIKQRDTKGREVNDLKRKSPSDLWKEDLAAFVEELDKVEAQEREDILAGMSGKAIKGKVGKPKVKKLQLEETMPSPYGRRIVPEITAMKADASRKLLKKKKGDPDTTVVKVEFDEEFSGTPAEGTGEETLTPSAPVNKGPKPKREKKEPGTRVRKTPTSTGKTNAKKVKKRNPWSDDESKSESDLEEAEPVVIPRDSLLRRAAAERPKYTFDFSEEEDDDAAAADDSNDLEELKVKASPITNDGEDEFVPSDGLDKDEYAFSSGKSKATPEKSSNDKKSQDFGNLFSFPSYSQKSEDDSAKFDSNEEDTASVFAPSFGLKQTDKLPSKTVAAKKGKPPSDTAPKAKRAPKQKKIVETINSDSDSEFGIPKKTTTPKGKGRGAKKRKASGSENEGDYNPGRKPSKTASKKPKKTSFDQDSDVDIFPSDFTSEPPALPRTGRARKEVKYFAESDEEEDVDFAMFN
UniProt Q02880: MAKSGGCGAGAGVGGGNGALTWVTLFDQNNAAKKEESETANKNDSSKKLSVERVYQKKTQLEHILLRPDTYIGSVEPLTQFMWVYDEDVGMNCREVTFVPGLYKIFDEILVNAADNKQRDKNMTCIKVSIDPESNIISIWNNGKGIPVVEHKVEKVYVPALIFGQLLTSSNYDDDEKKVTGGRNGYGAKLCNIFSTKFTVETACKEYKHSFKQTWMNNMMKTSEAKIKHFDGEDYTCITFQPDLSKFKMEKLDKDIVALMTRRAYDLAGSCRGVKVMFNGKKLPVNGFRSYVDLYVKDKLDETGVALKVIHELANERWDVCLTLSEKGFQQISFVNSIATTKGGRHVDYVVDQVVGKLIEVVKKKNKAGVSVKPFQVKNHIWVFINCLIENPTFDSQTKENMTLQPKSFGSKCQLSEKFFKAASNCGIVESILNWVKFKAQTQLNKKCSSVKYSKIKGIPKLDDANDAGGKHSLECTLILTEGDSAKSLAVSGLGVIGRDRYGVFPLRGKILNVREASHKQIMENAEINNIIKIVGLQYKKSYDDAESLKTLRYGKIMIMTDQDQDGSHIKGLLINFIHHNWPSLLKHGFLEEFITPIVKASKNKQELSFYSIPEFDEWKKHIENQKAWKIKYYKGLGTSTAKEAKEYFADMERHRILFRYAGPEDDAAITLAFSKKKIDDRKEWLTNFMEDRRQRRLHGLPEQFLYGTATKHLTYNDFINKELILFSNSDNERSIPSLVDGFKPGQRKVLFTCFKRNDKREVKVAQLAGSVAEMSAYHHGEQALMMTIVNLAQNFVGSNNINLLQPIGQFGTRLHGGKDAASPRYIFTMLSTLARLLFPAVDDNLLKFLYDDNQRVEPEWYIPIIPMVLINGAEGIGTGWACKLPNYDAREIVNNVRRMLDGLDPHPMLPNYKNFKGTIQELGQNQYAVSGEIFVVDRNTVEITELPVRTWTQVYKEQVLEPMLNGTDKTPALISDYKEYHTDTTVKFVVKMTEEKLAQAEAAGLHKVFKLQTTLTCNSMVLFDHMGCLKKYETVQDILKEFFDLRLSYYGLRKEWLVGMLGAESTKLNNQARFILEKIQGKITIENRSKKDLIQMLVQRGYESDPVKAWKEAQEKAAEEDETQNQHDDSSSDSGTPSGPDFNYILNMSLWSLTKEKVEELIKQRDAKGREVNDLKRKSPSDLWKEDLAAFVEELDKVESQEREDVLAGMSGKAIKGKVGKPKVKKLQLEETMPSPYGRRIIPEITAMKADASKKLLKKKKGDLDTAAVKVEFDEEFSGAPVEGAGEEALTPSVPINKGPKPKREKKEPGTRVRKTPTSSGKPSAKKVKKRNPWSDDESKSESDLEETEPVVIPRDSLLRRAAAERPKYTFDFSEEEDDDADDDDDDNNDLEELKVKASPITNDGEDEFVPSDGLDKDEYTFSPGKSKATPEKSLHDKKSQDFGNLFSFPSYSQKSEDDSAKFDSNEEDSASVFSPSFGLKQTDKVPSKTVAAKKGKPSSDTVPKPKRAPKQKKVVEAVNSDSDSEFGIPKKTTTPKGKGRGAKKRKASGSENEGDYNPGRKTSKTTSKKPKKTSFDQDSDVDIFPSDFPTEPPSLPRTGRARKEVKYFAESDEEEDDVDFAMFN

Legend:
[1] = target: Flag-tagged Beclin 1 (expressed in NIH3T3 cells) (not stated (human or mouse cDNA cloned)) (UniProt O88597); experiment: co-IP; nuclear lysates of NIH3T3 cells stably expressing Flag-tagged Beclin 1 or vector; immunoprecipitation with anti-Flag antibodies, immunoblot
[2] = target: Flag-tagged Beclin 1 (expressed in NIH3T3 cells) (not stated (human or mouse cDNA cloned)) (UniProt O88597); experiment: co-IP; NIH3T3 cells overexpressing Flag-tagged Beclin 1, treated with or without IR; immunoprecipitation, blot for DNA topoisomerase IIβ
[3] = target: Flag-tagged Beclin 1 (overexpressed in 293T cells) (not stated (human or mouse cDNA cloned)) (UniProt Q14457); experiment: co-IP; 293T cells overexpressing Flag-tagged Beclin 1, treated with or without IR; immunoprecipitation, blot for DNA topoisomerase IIβ
[4] = target: Beclin 1 (endogenous, HeLa) (human (endogenous in HeLa)) (UniProt Q14457); experiment: co-IP; endogenous proteins in HeLa cells treated with or without IR; co-immunoprecipitation and immunoblotting

Substance: DNA topoisomerase IIβ (endogenous, NIH3T3) (from UniProt Q64511 1-1612)
- binding [1]: binds
- binding [2]: binds

Substance: DNA topoisomerase IIβ (endogenous, 293T) (from UniProt Q02880 1-1626)
- binding [3]: binds

Substance: DNA topoisomerase IIβ (endogenous, HeLa) (from UniProt Q02880 1-1626)
- binding [4]: binds
